Results taken from publication PMC11324307.
Results are given in words; binding and its absence hold for the method and conditions named. In cells and extracts the contact can be indirect. Some results given as binding are weak or reduced against the parent protein; the word gives no strength.

By UniProt entry, the sequences of proteins in these tests, tags left out. Residues count along the entry.
UniProt Q9NZQ7, residues 19-290: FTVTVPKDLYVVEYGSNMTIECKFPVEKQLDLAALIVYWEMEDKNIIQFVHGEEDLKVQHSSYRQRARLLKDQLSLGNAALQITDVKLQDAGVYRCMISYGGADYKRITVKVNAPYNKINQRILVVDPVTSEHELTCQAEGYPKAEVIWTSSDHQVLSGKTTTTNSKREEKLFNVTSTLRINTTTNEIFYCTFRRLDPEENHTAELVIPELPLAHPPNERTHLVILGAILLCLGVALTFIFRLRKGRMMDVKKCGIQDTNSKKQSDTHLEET

Target: programmed death-ligand 1 (PD-L1) (UniProt Q9NZQ7)
Test: co-IP; immunoprecipitation for PD-L1 from transfected HEK-293 cells, immunoblot for GOLM1

B1: Golgi membrane protein 1 (GOLM1) (protein, UniProt Q8NBJ4 1-401)
chain: MMGLGNGRRSMKSPPLVLAALVACIIVLGFNYWIASSRSVDLQTRIMELEGRVRRAAAERGAVELKKNEFQGELEKQREQLDKIQSSHNFQLESVNKLYQDEKAVLVNNITTGERLIRVLQDQLKTLQRNYGRLQQDVLQFQKNQTNLERKFSYDLSQCINQMKEVKEQCEERIEEVTKKGNEAVASRDLSENNDQRQQLQALSEPQPRLQAAGLPHTEVPQGKGNVLGNSKSQTPAPSSEVVLDSKRQVEKEETNEIQVVNEEPQRDRLPQEPGREQVVEDRPVGGRGFGGAGELGQTPQVQAALSVSQENPEMEGPERDQLVIPDGQEEEQEAAGEGRNQQKLRGEDDYNMDENEAESETDKQAALAGNDRNIDVFNVEDQKRDTINLLDQREKRNHTL
  binding: binds
